Measurements reported in PubChem BioAssay AID1259308 (NCATS, 2017).
The whole screen tested about 59,000 reagents; this is a part drawn at random. About 1,510 of them (2.6%) count as active. 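Calls use total luciferase alone and ignore viability, so some active siRNAs may act by altering cell number.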 The numbers tell different reagents against one gene apart.

Test: 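Genes whose loss raises luciferase production in HEK293 cells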 (primary screen)
Cell system: human HEK293 embryonic kidney cells stably expressing firefly luciferase (HEK-CMV-Luc2-Hygro)
Reagents: single siRNA against human genes, 0.8 pmol siRNA per well
Duration: 72 h
Measured: 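Luciferase light (ONE-Glo) measured on one replicate plate set and viability (CellTiter-Glo) on the other, scaled to a negative control siRNA, with robust z-scores and luciferase per cell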
Reading the numbers: total luciferase, z-score and total luciferase, % of control: higher = more reporter protein produced; luciferase per cell, z-score: higher = more reporter output per viable cell; viable cells, % of control: higher = more viable cells
Hit rule: 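Active when the median/MAD z-score for overall luciferase is greater than 3; a gene was taken forward for validation with new siRNAs if at least two of its three siRNAs passed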
Calls: active = raised luciferase; inactive = no rise

| gene knocked down | siRNA no. | total luciferase, z-score | total luciferase, % of control | luciferase per cell, z-score | viable cells, % of control | call |
| --- | --- | --- | --- | --- | --- | --- |
| AMIGO2 | 1 | -1.48 | 52.5 | 0.134 | 56.6 | inactive |
| AMIGO2 | 2 | -0.941 | 63.2 | -1.27 | 98.6 | inactive |
| AMIGO2 | 3 | -0.576 | 70.4 | -0.464 | 88.9 | inactive |
| CNNM3 | 1 | 0.0538 | 83 | -0.283 | 99.9 | inactive |
| CNNM3 | 2 | -1.21 | 57.8 | -1.02 | 84.5 | inactive |
| CNNM3 | 3 | 0.636 | 94.5 | 0.564 | 91.1 | inactive |
| IARS1 | 1 | -0.319 | 75.5 | -0.376 | 93.2 | inactive |
| IARS1 | 2 | -1.54 | 51.3 | -2.48 | 110 | inactive |
| IARS1 | 3 | 0.651 | 94.8 | -0.0388 | 107 | inactive |
| EPCAM | 1 | 3.12 | 144 | 1.69 | 103 | active |
| EPCAM | 2 | -0.69 | 68.2 | -0.217 | 80.6 | inactive |
| EPCAM | 3 | -0.393 | 74.1 | -0.305 | 89.7 | inactive |
| KLRC2 | 1 | -0.212 | 77.7 | 0.145 | 83.5 | inactive |
| KLRC2 | 2 | -0.8 | 66 | -0.734 | 89.4 | inactive |
| KLRC2 | 3 | 0.546 | 92.8 | -0.0272 | 104 | inactive |
| SLC26A3 | 1 | 0.0457 | 82.8 | 0.0932 | 90.3 | inactive |
| SLC26A3 | 2 | 0.698 | 95.8 | 0.655 | 90.1 | inactive |
| SLC26A3 | 3 | -0.837 | 65.2 | -1.01 | 95.2 | inactive |
| ZNF761 | 1 | 0.209 | 86 | -0.276 | 103 | inactive |
| ZNF761 | 2 | 0.986 | 101 | 0.906 | 89.3 | inactive |
| ZNF761 | 3 | 2.44 | 130 | 2.14 | 83 | inactive |
| IGLL1 | 1 | 0.502 | 91.9 | -0.0671 | 104 | inactive |
| IGLL1 | 2 | 5.28 | 187 | 3.81 | 76.5 | active |
| IGLL1 | 3 | 0.487 | 91.6 | -0.285 | 110 | inactive |
| AKR1A1 | 1 | 2.52 | 132 | 2.2 | 82.6 | inactive |
| AKR1A1 | 2 | 3.68 | 155 | 2.71 | 84.9 | active |
| AKR1A1 | 3 | 0.382 | 89.5 | 0.2 | 94.9 | inactive |
| MCMBP | 1 | 1.17 | 105 | 1.03 | 89.7 | inactive |
| MCMBP | 2 | 1.06 | 103 | 0.427 | 103 | inactive |
| MCMBP | 3 | 1.89 | 120 | 1.23 | 96.7 | inactive |
| RPS10P30 | 1 | -0.311 | 75.7 | 0.586 | 72.5 | inactive |
| RPS10P30 | 2 | -1.94 | 43.4 | -1.56 | 73.1 | inactive |
| RPS10P30 | 3 | -0.759 | 66.8 | 0.998 | 57.4 | inactive |
| JUNB | 1 | -0.285 | 76.2 | -0.399 | 94.6 | inactive |
| JUNB | 2 | -0.314 | 75.6 | -0.657 | 100 | inactive |
| JUNB | 3 | 1.17 | 105 | 1.49 | 79.3 | inactive |
| PAQR4 | 1 | -0.419 | 73.6 | -0.465 | 92.9 | inactive |
| PAQR4 | 2 | 4.78 | 177 | 3.99 | 69.2 | active |
| PAQR4 | 3 | 0.81 | 98 | 1.34 | 76.9 | inactive |
| ZP2 | 1 | -0.483 | 72.3 | -0.79 | 99.4 | inactive |
| ZP2 | 2 | 1.31 | 108 | 1.16 | 88.9 | inactive |
| ZP2 | 3 | 1.19 | 106 | 1.29 | 83.9 | inactive |

3 neighbouring records already listed, for reference:
| gene knocked down | siRNA no. | total luciferase, z-score | total luciferase, % of control | luciferase per cell, z-score | viable cells, % of control | call |
| --- | --- | --- | --- | --- | --- | --- |
| IGLL1 | 3 | 0.487 | 91.6 | -0.285 | 110 | inactive |
| AKR1A1 | 1 | 2.52 | 132 | 2.2 | 82.6 | inactive |
| AKR1A1 | 2 | 3.68 | 155 | 2.71 | 84.9 | active |

Further records follow.
| gene knocked down | siRNA no. | total luciferase, z-score | total luciferase, % of control | luciferase per cell, z-score | viable cells, % of control | call |
| --- | --- | --- | --- | --- | --- | --- |
| LIM2 | 1 | 0.221 | 86.3 | -0.211 | 102 | inactive |
| LIM2 | 2 | 0.117 | 84.2 | 0.141 | 90.7 | inactive |
| LIM2 | 3 | 1.48 | 111 | 2.11 | 71.4 | inactive |
| DMRT2 | 1 | -0.0751 | 80.4 | -0.107 | 92.4 | inactive |
| DMRT2 | 2 | 0.00452 | 82 | -0.546 | 106 | inactive |
| DMRT2 | 3 | 1.41 | 110 | 1.15 | 90.8 | inactive |
| NINJ2 | 1 | -1.24 | 57.2 | 0.186 | 60.8 | inactive |
| NINJ2 | 2 | -0.347 | 75 | -1.22 | 115 | inactive |
| NINJ2 | 3 | 1.42 | 110 | 1.7 | 78.6 | inactive |
| B4GALT2 | 1 | -0.381 | 74.3 | -0.612 | 97.6 | inactive |
| B4GALT2 | 2 | -0.0875 | 80.1 | -0.494 | 102 | inactive |
| B4GALT2 | 3 | -0.545 | 71 | -0.549 | 91.7 | inactive |
| TNNI3 | 1 | 1.01 | 102 | 0.75 | 93.6 | inactive |
| TNNI3 | 2 | -2.56 | 31 | -2.3 | 63.5 | inactive |
| TNNI3 | 3 | -0.0115 | 81.7 | -0.344 | 99.9 | inactive |
| USP3 | 1 | 0.1 | 83.9 | -0.302 | 101 | inactive |
| USP3 | 2 | -0.713 | 67.7 | -0.902 | 95.9 | inactive |
| USP3 | 3 | 0.641 | 94.6 | 0.756 | 86.7 | inactive |
| ROR2 | 1 | 0.354 | 88.9 | 0.552 | 85.9 | inactive |
| ROR2 | 2 | 1.66 | 115 | 1.11 | 95.8 | inactive |
| ROR2 | 3 | -0.344 | 75 | -0.919 | 107 | inactive |
| ATP5MC3 | 1 | -0.359 | 74.7 | -0.176 | 87.5 | inactive |
| ATP5MC3 | 2 | 0.955 | 101 | 0.525 | 98.2 | inactive |
| ATP5MC3 | 3 | -0.609 | 69.8 | -1.33 | 111 | inactive |
| NXN | 1 | -0.332 | 75.3 | -0.469 | 95.2 | inactive |
| NXN | 2 | -0.211 | 77.7 | -0.864 | 109 | inactive |
| NXN | 3 | 0.226 | 86.4 | 0.466 | 85.4 | inactive |
| OR5C1 | 1 | 1.25 | 107 | 1.13 | 88.5 | inactive |
| OR5C1 | 2 | 0.713 | 96.1 | 0.802 | 86.9 | inactive |
| OR5C1 | 3 | 0.488 | 91.6 | 2.24 | 56.7 | inactive |
| GAMT | 1 | 0.831 | 98.4 | 0.469 | 97.2 | inactive |
| GAMT | 2 | 2.02 | 122 | 1.51 | 91.6 | inactive |
| GAMT | 3 | 0.413 | 90.1 | 0.453 | 89.3 | inactive |
